Source: PMC2714321, “DNA binding kinetics of two response regulators, PlnC and PlnD, from the bacteriocin regulon of Lactobacillus plantarum C11”
The exact form of at least one protein or probe is not confirmed. The comparison behind a weaker result is the experiment's own reference, which may not be listed here. Protein sequences can lack the tags named with them.

Columns and labels:
[1] = target: T1, f-PlnC (Lactobacillus plantarum C11) (UniProt Q48829); assay: SPR; settings: 1000 nM protein, signal <20 RU, KD not available; SPR (Biacore 3000, SA chip): 20 mM Tris-HCl pH 8.0, 100 mM NaCl, 5 mM MgCl2, 1 mM EDTA, 0.025% Triton X-100, 25°C; native protein; protein details: N-terminal FLAG; label: biotin on forward strand
T1 sequence (looked up, limits assumed): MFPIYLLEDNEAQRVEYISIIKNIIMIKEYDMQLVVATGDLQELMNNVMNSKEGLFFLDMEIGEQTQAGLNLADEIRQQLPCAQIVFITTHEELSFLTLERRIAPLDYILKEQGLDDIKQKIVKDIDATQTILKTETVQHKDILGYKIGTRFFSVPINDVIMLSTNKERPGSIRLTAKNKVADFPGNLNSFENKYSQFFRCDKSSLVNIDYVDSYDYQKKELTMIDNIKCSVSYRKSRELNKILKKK

[2] = target: T2, f-PlnD (Lactobacillus plantarum C11) (UniProt Q48830); assay: SPR; settings: 1000 nM protein, KD not available, SPR (Biacore 3000, SA chip): 20 mM Tris-HCl pH 8.0, 100 mM NaCl, 5 mM MgCl2, 1 mM EDTA, 0.025% Triton X-100, 25°C, native protein, protein details: N-terminal FLAG, label: biotin on forward strand
T2 sequence (looked up, limits assumed): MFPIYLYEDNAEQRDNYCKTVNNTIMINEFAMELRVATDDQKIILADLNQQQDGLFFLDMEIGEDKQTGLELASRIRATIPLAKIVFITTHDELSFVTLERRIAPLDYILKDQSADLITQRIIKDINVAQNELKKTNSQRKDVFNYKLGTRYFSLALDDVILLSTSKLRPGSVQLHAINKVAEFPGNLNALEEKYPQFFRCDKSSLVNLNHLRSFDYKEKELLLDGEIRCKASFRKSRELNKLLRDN

Question: Does “ACTTTCAAGTTACGTTAAATCGATTAAATAGTACGATAACAAATTTAAAA (double strand) [PplnJ]” bind [1]?
Answer: binds more weakly

Question: Does “ATTGGTATTTGACGTTAAGAGAACGTTTTTTTACTTTTATAATTTTTTCA (double strand) [PplnE]” bind ([2]; signal hardly detectable, very poor binding)?
Answer: binds more weakly

Question: Does “CATGGTGATTTTAAAATTTATTTAAAAAATGTACGTTAATAGAAATAATT (double strand) [PplnAΔL]” bind ([2]; binding reduced 84-90% vs PplnA (range for both regulators))?
Answer: binds more weakly
